Assay results: patent US9416162B2, “Peptides having reduced toxicity that stimulate cholesterol efflux” (The Regents of the University of California, priority 2013, dated 2016)
For some of these results: At least one peptide structure holds a part that was inferred or is arguable (an end, a ring closure or a residue). For some of these results: At least one structure is not confirmed: it was looked up by name or label, or the drawing left a doubt. Non-standard residues stand in square brackets, D forms with d. Residues, ends and D or L forms follow the SMILES beside them. No end group written: not given here. Cit = NC(=O)NCCC[C@H](N)C(=O)O

Chains of the proteins cited; added tags and fusions are not shown. Lines headed by an entry give the natural chain unless they say otherwise; changes in a name come on top.
UniProt P41233: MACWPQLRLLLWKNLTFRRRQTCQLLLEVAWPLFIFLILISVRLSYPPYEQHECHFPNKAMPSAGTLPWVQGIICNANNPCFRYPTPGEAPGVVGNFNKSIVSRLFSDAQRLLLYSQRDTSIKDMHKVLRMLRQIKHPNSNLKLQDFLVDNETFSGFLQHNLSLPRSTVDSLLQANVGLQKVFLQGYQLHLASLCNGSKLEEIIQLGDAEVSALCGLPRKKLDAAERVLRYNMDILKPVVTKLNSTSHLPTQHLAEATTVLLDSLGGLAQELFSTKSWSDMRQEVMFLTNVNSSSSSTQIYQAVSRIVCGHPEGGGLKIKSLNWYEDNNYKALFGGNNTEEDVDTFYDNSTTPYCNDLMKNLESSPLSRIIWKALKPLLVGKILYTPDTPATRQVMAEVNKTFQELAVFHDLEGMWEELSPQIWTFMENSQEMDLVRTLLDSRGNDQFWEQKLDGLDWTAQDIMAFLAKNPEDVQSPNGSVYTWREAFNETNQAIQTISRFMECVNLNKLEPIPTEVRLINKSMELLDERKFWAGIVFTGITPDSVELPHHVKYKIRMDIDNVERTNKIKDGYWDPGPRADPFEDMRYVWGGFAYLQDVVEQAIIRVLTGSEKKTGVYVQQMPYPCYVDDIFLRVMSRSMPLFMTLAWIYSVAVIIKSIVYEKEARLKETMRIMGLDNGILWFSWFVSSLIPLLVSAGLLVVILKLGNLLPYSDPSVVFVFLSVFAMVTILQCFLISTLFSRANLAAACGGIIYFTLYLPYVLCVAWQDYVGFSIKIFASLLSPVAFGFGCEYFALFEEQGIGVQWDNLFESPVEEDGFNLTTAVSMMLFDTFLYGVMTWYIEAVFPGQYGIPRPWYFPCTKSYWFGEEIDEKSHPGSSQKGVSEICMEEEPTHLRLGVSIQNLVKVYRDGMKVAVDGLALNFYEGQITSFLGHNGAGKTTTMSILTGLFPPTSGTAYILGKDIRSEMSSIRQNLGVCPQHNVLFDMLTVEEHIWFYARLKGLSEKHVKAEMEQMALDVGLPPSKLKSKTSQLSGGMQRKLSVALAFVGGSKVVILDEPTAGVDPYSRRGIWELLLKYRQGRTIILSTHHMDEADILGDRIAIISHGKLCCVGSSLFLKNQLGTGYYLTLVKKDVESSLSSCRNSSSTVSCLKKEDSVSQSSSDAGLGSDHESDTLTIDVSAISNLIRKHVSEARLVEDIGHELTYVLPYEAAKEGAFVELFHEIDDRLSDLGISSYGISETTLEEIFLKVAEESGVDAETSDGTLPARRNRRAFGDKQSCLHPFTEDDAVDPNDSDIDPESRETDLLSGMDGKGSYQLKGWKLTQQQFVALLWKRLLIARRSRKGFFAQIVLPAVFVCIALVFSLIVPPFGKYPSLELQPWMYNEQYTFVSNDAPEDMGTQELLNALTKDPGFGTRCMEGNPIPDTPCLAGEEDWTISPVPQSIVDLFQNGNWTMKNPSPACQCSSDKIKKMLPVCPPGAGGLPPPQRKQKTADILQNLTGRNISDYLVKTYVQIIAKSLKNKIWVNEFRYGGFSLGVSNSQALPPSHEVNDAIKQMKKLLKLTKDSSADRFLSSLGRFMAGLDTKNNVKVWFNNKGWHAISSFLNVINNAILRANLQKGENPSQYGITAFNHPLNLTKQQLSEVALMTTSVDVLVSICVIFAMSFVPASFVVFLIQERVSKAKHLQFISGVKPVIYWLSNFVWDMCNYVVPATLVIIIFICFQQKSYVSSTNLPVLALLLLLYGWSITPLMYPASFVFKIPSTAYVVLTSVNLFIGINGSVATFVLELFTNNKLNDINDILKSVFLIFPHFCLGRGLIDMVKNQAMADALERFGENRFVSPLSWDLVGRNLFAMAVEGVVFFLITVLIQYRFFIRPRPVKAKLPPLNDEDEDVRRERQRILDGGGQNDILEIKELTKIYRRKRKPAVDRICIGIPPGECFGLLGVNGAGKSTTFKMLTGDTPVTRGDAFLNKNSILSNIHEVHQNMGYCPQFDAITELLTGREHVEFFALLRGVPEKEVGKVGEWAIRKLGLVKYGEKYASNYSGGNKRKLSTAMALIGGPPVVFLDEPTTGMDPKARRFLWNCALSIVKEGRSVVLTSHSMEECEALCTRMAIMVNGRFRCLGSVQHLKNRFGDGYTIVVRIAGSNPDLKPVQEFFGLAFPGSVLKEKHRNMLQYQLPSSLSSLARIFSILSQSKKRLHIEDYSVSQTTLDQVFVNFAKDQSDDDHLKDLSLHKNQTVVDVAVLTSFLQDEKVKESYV

Tests used:
[1] = Scaled Parameters = (Raw Parameters + 2.061)/4.484; cited from earlier work
ABCA1 [2] = target: T1, ABCA1 (Mus musculus, UniProt P41233); assay: ABCA1-dependent [3H]cholesterol efflux from J774 macrophages with and without cAMP; type: cell-based; details: peptide 10 μg/ml
T1 construct: treated (18 h) with a cAMP analog to induce ABCA1 protein expression; endogenous in cells; host or cells: J774 macrophages

ABCA1 [3] = target: T1, ABCA1; assay: as above; type: cell-based; details: cAMP treated J774 cells, dose response
Description: Suitable cholesterol efflux assays are described in, e.g., Bielicki, J. K and Oda, M. N., Biochemistry, 41:2089-2096 (2002); Jia et al., Biochem. Biophys. Res. Common., 297:206-213 (2002). In some embodiments, a polypeptide known to mediate cholesterol efflux (e.g., helix 9/10 of Apo A-I) is used to screen for additional mediators of cholesterol efflux in a cell based assay. For example, cell lines in which cholesterol efflux can be enhanced using a cAMP analog that up-regulates ABCA1 protein expression (e.g., J774 macrophages) can conveniently be used to assess the ability of a polypeptide of the present invention to mediate cholesterol efflux. The cells are incubated with labeled cholesterol (e.g., [^3H]cholesterol) under conditions appropriate for cholesterol uptake by the cells. Thus, cAMP or cAMP analogs (e.g., CPT-cAMP) are incubated with the cells for a suitable time before the initiation of cellular cholesterol efflux, i.e., prior to contacting the cells with a test polypeptide. Measurement of labeled cholesterol appearing in the medium is used to determine the cholesterol efflux mediating activity of the test polypeptide.
Aliphatic analogs of ATI-5261 lacking phenylalanine residues retained potent ABCA1 selective cholesterol efflux activity (FIG. 7). J774 macrophages were labeled (48 h) with [^3H]cholesterol and treated (18 h) with a cAMP analog to induce ABCA1 protein expression; cells incubated in the absence of cAMP (left bars) served as controls. […] Peptides were used at a concentration of 30 μg/ml, which was maximal for promoting cholesterol efflux activity. Panel B—Dependence of cholesterol efflux on the concentration of peptides. […] Results are expressed as the difference in cholesterol efflux (%/4 h) observed using cAMP treated vs. non-treated J774 cells. Values are means±SD, n=3.

WT mice = assay: Cholesterol and glucose in WT mice after i.p. injection; type: in vivo, mouse; details: 300 mg/kg i.p., 6 hours, vs PBS

Compound | Hydrophobicity (scaled computational log(P)) [1] | ABCA1-dependent cholesterol efflux activity (ABCA1 [2]) | efficiency of stimulating cholesterol efflux (concentration dependence) (ABCA1 [3]) | cholesterol ester (CE) (WT mice) | glucose (G) (WT mice) | total cholesterol (TC) (WT mice)
N[C@@H](CC(=O)O)C(=O)O [Aspartate] | 0.028 |  |  |  |  | 
CC[C@H](C)[C@H](NC(=O)[C@H](C)NC(=O)[C@H](C)NC(=O)[C@@H](NC(=O)[C@H](Cc1c[nH]c2ccccc12)NC(=O)[C@H](CCC(=O)O)NC(=O)[C@H](CCC(=O)O)NC(=O)[C@H](CC(C)C)NC(=O)[C@H](CCCCN)NC(=O)[C@H](CO)NC(=O)[C@H](CCCNC(N)=O)NC(=O)[C@@H](NC(=O)[C@@H](N)CCC(=O)O)C(C)C)[C@@H](C)CC)C(=O)N[C@@H](CCCNC(N)=O)C(=O)N[C@@H](CCC(=O)O)C(=O)N[C@H](C(=O)N[C@@H](C)C(=O)N[C@@H](CCC(=O)O)C(=O)N[C@@H](CCC(=O)O)C(=O)N[C@H](C(=O)N[C@@H](CC(C)C)C(=O)N[C@@H](C)C(=O)N[C@@H](CCCNC(=N)N)C(=O)N[C@@H](CC(C)C)C(=O)N[C@@H](CCCCN)C(=O)N[C@@H](CO)C(=O)O)[C@@H](C)CC)[C@@H](C)CC [T6991-2, EVC*SKLEEWIAAIC*EIAEEILARLKS (SEQ ID NO:3)] (H-EV[Cit]SKLEEWIAAI[Cit]EIAEEILARLKS-OH) |  | mediating high-levels of cholesterol efflux | highly efficient manner | significantly lower | significantly lower | significantly lower
EARSKAEEWLAALLELAEELLARAKS [T5211-2] |  | high-levels of cholesterol efflux activity | potent functionality |  |  | 
EVRSKLEEWIAAIREIAEEILARLKS [T6991-1] |  | mediating high-levels of cholesterol efflux | highly efficient manner |  |  | 
